About 210 (0.4%) of roughly 52,000 sequences were called active.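 The calls were made as follows: active = gene whose silencing raises cell survival under the drug, median off-target-corrected z-score across its silencing RNAs 2 or more; inactive = the rest.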 This is one part of the list.

The assay is described as follows: Resistance to Poly (ADP-Ribose) Polymerase inhibitor: Gene Identification via Genome-wide siRNA Screen. The conditions noted are these: mouse BRCA2 R2336H ES cells, olaparib, CellTiter-Glo viability; active compounds read high. The procedure, abridged:
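Mouse BRCA2 R2336H ES cells were reverse-transfected with siRNA (20 nM final), treated at 48 h with 500 nM olaparib, and read by CellTiter-Glo after 72 h. Scores: MAD-based z per siRNA, median per gene, seed off-target correction.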
For CCUGUGUUCUGACCUAGAGTT against Hes6, the z-score is inactive: 0.377.

“GGGAAGAAAUAAAAGAAACTT against 1110020L19Rik”: the z-score was inactive: 0.725.

Consider GGCUCUAAAGAGACACCUUTT against Olfr498, for which the z-score was inactive: 0.17.

Consider GGAAAAGCUACAUUACUUCTT against Trim31, for which the z-score was inactive: 0.744.

Consider CCAAGUCUAAAGGGAAUGGTT against S100a9, for which the z-score is inactive: 1.83.

Take CGACCGUUUUAAAUCAUAATT against C5r1: the z-score was inactive: 0.93.

With “GGUCAUGUUAAAGGAAUCATT against 4933403F05Rik”, the z-score is inactive: 0.531.

Turning to GGCAUUAACCUGAGAUGAUTT against Sprr2i, the z-score is inactive: -0.904.

Take CCGGAAACGGAUCAUUUCATT against Galntl4: the z-score is inactive: 0.0908.

As for GCUGCUCAGUUUCUUCCAATT against Hist1h4i, the z-score was inactive: -1.05.

As to “CCACUUCAUGAUUGAGUGCTT against 4921501E09Rik”, the z-score was inactive: 0.608.

Turning to GUGUUCAGGAAGCUGGCAGTT against Klra19, the z-score was inactive: 0.55.

As to “CCUAAUCAAAGGCACUAGATT against 0910001K20Rik”, the z-score is inactive: -0.578.

In the case of GGAGAUGAAAUAAAGUGGATT against Bucs1, the z-score is inactive: -0.159.

With CCAUAUGAGAAGAUGACACTT against Pdcl2, the z-score was inactive: -0.0774.

As to CCCAUAAGGGUGAAAUUCGTT against Tax1bp1, the z-score was inactive: 0.199.

Take “GGAGACAUGCAAUGAACUUTT against 1700030B17Rik”: the z-score is inactive: 0.65.

“GGAAAAGAGCCUCACAGACTT against Cocoacrisp”: the z-score was inactive: -0.151.

With “GGUCAAUUAAGAGAAAUGUTT against 4833417A11Rik”, the z-score is inactive: -0.0489.

For the sequence CCAUCAAACGGAUCCAGCATT against Rkhd1, the z-score was inactive: -2.66.

Turning to GGUUUUCUCGCUCAGACCATT against Wt1, the z-score was inactive: -0.969.

In the case of GCCUGUCCUGUGAUGACAUTT against Olfr406, the z-score was inactive: -2.3.

Take “CCCAGAUCAGAUUAUUUGGTT against 1700055N04Rik”: the z-score is inactive: 0.562.

For the sequence “GGUGCUGCCAAGAUCUCUUTT against C230043N17Rik”, the z-score was inactive: -2.28.

As for GGCUUACAGUUCCAUAUGGTT against Olfr401, the z-score is inactive: 1.13.

Consider “GGUGAAAUGCUUGACUAAATT against 2510010F15Rik”, for which the z-score is inactive: -0.68.

With GGUCAUGAUACAUGAUCCATT against Htr7, the z-score was inactive: -0.0936.

As for GCUAGGACUCAUAAUUUCCTT against Abcc4, the z-score was inactive: 0.386.

With GGAGGAAGAAUUUAUUGCATT against Ly6i, the z-score was inactive: -0.64.

As for “GGUUAUGUUUUGUCACUCUTT against 1810073N04Rik”, the z-score is inactive: 0.362.

As to GGGAUUCCAAAAGAAGAAGTT against Acat1, the z-score is inactive: -0.948.

As for GGGAUACUUGGUGAAUUGGTT against Actr6, the z-score was inactive: -0.314.

Regarding “GGCCCUAACAAUUCAUGAUTT against 5730469D23Rik”, the z-score is inactive: -0.767.

With GGACAAUUGUGACCUCAGATT against BC025833, the z-score is inactive: -0.0716.

With CGAAAUGUUUGGUCAGAUCTT against Masp1, the z-score is inactive: 0.166.

On to “CCCUAUCGUGAUUUAUUGGTT against C130073F10Rik”, for which the z-score was inactive: 0.977.

Turning to GGAGCUGAUCCUGAAUCACTT against Tpbg, the z-score is inactive: 1.65.

In the case of GGUAUCAGAGAGCACUUCATT against Surf2, the z-score was inactive: 1.63.

Turning to GGAAAAUUCCAGAAACCAUTT against BC004636, the z-score is inactive: -0.421.

Take “GCGGCAACAUUCUCUUAAGTT against 1200013B22Rik”: the z-score is inactive: -0.522.

With “GCUCAAUAGCUCAAAGUUUTT against 4833446K15Rik”, the z-score is inactive: 0.0247.

For GCUAAGCAUGAAAUUACCCTT against Pipox, the z-score is inactive: -0.315.

On to CCUGCUGCAUUAUGGUUGATT against Grn, for which the z-score was inactive: -1.24.

Take GCUCGUGGCAUGUCUCUAUTT against Doc2g: the z-score was inactive: 0.144.

Turning to CCCUAACAAACCCUAUUAUTT against Jmjd3, the z-score is inactive: -1.74.

In the case of CCAAUUGUACCUUAUCUGGTT against Tnfrsf4, the z-score is inactive: -0.771.

On to “GCGAUUAGGCAAGUUCCAATT against 2610208E05Rik”, for which the z-score was inactive: -0.413.

In the case of CCAAUGGCGAGACAACUACTT against Aldoa, the z-score was inactive: -1.96.

On to CCAGGUGGGAUAAAUUGAATT against Rpusd4, for which the z-score was inactive: -0.654.

Regarding CAUCGUGUGAAACUGGAGATT against BC036313, the z-score is inactive: 1.43.

Take GGAAAAUAAGCUGAAAUUCTT against Pygl: the z-score is inactive: 0.979.

Take GGUAUGGAUGAAGAACUAGTT against Pdhb: the z-score is inactive: 0.231.

On to GGAUGGAUUCCCAGGAACATT against Crybb1, for which the z-score is inactive: 2.62.

Regarding “GGUUCCUCAUUUGUAGAUGTT against D830050J10Rik”, the z-score was inactive: 0.198.

Turning to GCUCUUGUUAUACUUAACATT against Hr, the z-score was inactive: -1.51.

Regarding GCUAUUAUUGGGCUUUACCTT against Olfr341, the z-score was inactive: -0.625.

Take “GGACUUUCUUCACGUGUAUTT against 5730577I03Rik”: the z-score was inactive: 1.04.

On to GGCACCAUGAACAAGUUACTT against Numbl, for which the z-score was inactive: 2.61.

On to CCACUAUUUAAUCUUACCGTT against Hoxc13, for which the z-score is inactive: 0.343.

Consider GGUCCAAAACUGUUCUUCUTT against Dfy, for which the z-score is inactive: 0.66.

For the sequence GGCUUUUGGCAACAGCACUTT against Rbm14, the z-score is inactive: 1.13.

For “GGAUGGACCGCAUUGAAAATT against 2900002H16Rik”, the z-score is inactive: 0.547.

With GCCCUUGGAAUUUACCACUTT against Aldh8a1, the z-score is inactive: -1.17.

As to GCAGUUCAAGUCUUGAAUATT against Olfr934, the z-score was inactive: 2.02.

With CCGAUCAUUAUGAGCAUACTT against Nxf7, the z-score is inactive: -0.579.

As for GUACACCACAAUCCUCACCTT against Olfr677, the z-score was inactive: 0.354.

Consider GGUAAGGGUCUCUUAUUGCTT against LOC545558, for which the z-score was inactive: 1.44.

In the case of GCAGAGGAUAUAAAACAAGTT against Pde2a, the z-score is active: 0.234.

Consider GCUUAAGUGUGAUACAGUGTT against Rarsl, for which the z-score was inactive: -1.56.

For GGAGAAAUCAGAAUUUUUGTT against AA545217, the z-score is inactive: 1.17.

In the case of GGAUAAAGGACGAUGAGAUTT against BC026370, the z-score was inactive: 0.783.

As for “GGGUUAAACCACAUAUCCATT against 1700030K01Rik”, the z-score was inactive: 0.495.

As for “CGUUUUUUUCCUGAGCUAUTT against 2310061I09Rik”, the z-score is inactive: 1.53.

GGCUUCUUUGUUGUUUGCATT against M6pr: the z-score was inactive: -0.838.

On to CGACCAGUCACAAUGGUUATT against Edil3, for which the z-score is inactive: 0.381.

As for GUAUGGAUGUGGAAGCCUCTT against Olfr1417, the z-score is inactive: -0.497.

Take GGGAAGGAGUUUUUGAAAATT against Tinf2: the z-score is inactive: -0.223.

As to GGAGUUGUCUACCAAAGUUTT against Dp1, the z-score was inactive: -2.12.

As to GGAGAACACAGGUGGACUUTT against Ppy, the z-score was inactive: -0.976.

As for GGUGCCAACAAUACUAAACTT against Phr1, the z-score is inactive: 1.82.

As for “GACAAGGCUUCAUAAAAAGTT against 2610028H07Rik”, the z-score was inactive: 0.648.

Take “GGACUCAAAACCAUUUACATT against 1200002N14Rik”: the z-score was inactive: 0.796.

Turning to CGAUCAUGAGUCGAAGACUTT against Olfr1257, the z-score is inactive: 1.77.

With GGAGAAAGAUGUGCUCUGGTT against Il1rap, the z-score was inactive: -0.258.

On to GCUCAGUGGACAUGCUCUATT against Hpse, for which the z-score is inactive: -1.16.

Consider CGGCAAGGUUUGAAUUUAGTT against D10Ucla1, for which the z-score is inactive: 1.26.

In the case of “GCCAGAUGCGAUUCUCAGGTT against C730034F03Rik”, the z-score is inactive: 0.296.

Consider GGUGAUGGGCAAGGUGUUCTT against Syvn1, for which the z-score is inactive: -0.0146.

For GGAAAGUGCAGGAGAACAGTT against Mettl2, the z-score is inactive: -1.79.

Consider CCUACACAGCUGAAAUGGUTT against Olfr710, for which the z-score is inactive: 1.06.

Consider GGUCAUAGCAUCUACGGCUTT against LOC215714, for which the z-score is inactive: 1.17.

GGACUAUCUUUAUGAUGUGTT against Ush1c: the z-score was inactive: -0.547.

Consider GGCAUUUGACUUUAUUGCATT against Nit1, for which the z-score is inactive: -0.326.

GCUUGAAGCGAGACGAUACTT against Bhlhb3: the z-score is inactive: 2.98.

As for “GGAUGACAUCCAGACCAUGTT against 1810009B06Rik”, the z-score is inactive: 0.483.

Turning to GGGCUCUUGCCAGAAAACGTT against Rshl2, the z-score is inactive: 0.0505.

For the sequence GGAGAUUACCAGGUAUCAGTT against Ptpn21, the z-score is inactive: -0.143.

As for GGUUCGUUUGCAUUGGAAUTT against Cysltr1, the z-score was inactive: -0.728.

Consider GCUUAUUAACCACUACCACTT against Pik3r3, for which the z-score is inactive: 0.193.

Take GUUUAUCCACAUUGCCUUCTT against Olfr559: the z-score is inactive: -1.48.

Regarding GCCGUUACCGAUCUCUCCATT against Zfp61, the z-score was inactive: -0.435.

On to “GGUGUUCCUUUCACGAACATT against 5330427M13Rik”, for which the z-score was inactive: -0.371.

Regarding GCUGAUGUGAACUCAUCAUTT against Usmg5, the z-score is inactive: 0.765.

(Values after PubChem BioAssay AID1347423 (Functional Genomics Laboratory (NCATS/FGL), 2020).)
